Results from article PMC4459967.
Results are given in words; binding and its absence hold for the method and conditions named. In cells and extracts the contact can be indirect. Some entries that bind do so weakly or less than the wild type. Where a sequence is shown, tags or fusion partners need not be part of it.

T1: MMS19-Myc (Arabidopsis thaliana) (UniProt Q0WVF8)
T1 sequence: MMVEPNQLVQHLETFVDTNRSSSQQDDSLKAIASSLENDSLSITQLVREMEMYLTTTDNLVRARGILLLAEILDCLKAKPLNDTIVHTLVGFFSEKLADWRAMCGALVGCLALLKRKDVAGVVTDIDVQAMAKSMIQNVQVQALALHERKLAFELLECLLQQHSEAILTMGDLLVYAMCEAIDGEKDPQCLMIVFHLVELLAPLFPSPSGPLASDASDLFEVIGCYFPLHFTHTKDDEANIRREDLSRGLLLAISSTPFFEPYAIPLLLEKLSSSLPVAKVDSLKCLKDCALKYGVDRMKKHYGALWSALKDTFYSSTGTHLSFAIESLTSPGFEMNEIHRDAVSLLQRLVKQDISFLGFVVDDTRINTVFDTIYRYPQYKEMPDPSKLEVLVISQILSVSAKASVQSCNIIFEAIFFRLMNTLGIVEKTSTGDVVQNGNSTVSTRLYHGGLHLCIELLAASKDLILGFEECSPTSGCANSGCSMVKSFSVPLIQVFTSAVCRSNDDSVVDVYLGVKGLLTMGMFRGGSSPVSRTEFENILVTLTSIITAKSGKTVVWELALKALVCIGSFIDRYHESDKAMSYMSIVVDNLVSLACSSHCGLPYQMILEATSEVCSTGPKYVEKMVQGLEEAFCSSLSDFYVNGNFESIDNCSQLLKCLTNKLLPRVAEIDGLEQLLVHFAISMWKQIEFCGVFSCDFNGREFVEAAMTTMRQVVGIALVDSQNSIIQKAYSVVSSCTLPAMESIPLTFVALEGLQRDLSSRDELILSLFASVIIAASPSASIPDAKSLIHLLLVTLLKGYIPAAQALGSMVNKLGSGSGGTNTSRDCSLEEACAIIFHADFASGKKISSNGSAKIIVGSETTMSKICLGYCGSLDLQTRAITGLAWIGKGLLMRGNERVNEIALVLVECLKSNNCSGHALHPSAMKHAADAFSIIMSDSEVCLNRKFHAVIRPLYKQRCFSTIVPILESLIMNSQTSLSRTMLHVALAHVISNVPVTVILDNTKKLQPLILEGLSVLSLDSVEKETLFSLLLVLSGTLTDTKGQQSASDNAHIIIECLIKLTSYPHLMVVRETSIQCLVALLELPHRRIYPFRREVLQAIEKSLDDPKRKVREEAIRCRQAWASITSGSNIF


Target: T1, MMS19-Myc (Arabidopsis thaliana)
Experiment: co-IP; total protein extracts of T2 transgenic plants carrying two tagged transgenes, antibody-conjugated beads, washed 5 or 6 times with lysis buffer, Western blotting

Row | binding | Binder
1 | binds | CIA1-Flag (protein, UniProt O80990 1-352) MDLMEKNLELVEIQKLEGHTDRVWSVAWNPVSSHADGVSPILASCSGDNTVRIWEQSSLSRSWTCKTVLEETHTRTVRSCAWSPSGQLLATASFDGTTGIWKNYGSEFECISTLEGHENEVKSVSWNASGSCLATCSRDKSVWIWEVLEGNEYDCAAVLTGHTQDVKMVQWHPTMDVLFSCSYDNTIKVWWSEDDDGEYQCVQTLGESNNGHSSTVWSISFNAAGDKMVTCSDDLTLKIWGTDIAKMQSGEEYAPWIHLCTLSGYHDRTIYSAHWSRDDIIASGAGDNAIRLFVDSKHDSVDGPSYNLLLKKNKAHENDVNSVQWSPGEGNRLLASASDDGMVKIWQLATKP
2 | binds | CIA2-Flag (protein, UniProt Q9C9G6 1-157) MVSGLINENPIIYPKKERRLRTDTSITDELTPEPIDQLEIFDHIRDIKDPEHPNTLEDLRVVTEDSVEVDDENSYVRVTFTPTVEHCSMATVIGLCVRVKLLRSLPSRYKIDIRVAPGSHATEDALNKQLNDKERVAAALENPNLVEMVDECLPSEE
